PubChem BioAssay AID1224831, NIAID – 2016

Aim: 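Genes that support or restrain LPS-induced TNF-alpha reporter activity in macrophage-like cells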 (follow-up of hits)
Cells: human THP-1 B5 monocytic leukaemia cells carrying a TNF promoter luciferase reporter, made macrophage-like with PMA
Reagent: single siRNA against human genes, 50 nM
Time to read-out: about 68 h of knock-down, then 4 h LPS
Challenge: LPS (Salmonella minnesota, TLR-grade) at 10 ng/ml for 4 h; PMA 5 ng/ml present during knock-down
Measured: 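TNF promoter reporter read as dual luciferase ratio after 4 h LPS, normalised per plate to its median, given as replicate mean robust z-score per siRNA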
Reading the numbers: TNF reporter z-score: higher = stronger LPS-induced TNF reporter signal
Call rule: 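Two-sided call: reduced or raised TNF reporter signal counts as active once mean z reaches about -1 or below, or about 1.5 or above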
Meaning of the calls: active = changed TNF reporter (either direction); inactive = little change
In all, the deposit lists about 3,500 reagents; this is a random part of them. Over the whole deposit, 731 (21%) are marked active. 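Active means either lowered or raised reporter signal; the gene-median score did not drive the per-siRNA calls.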 Further read-outs or replicates are left out here.

TNF reporter z-score, replicate mean, by target and reagent
MPZL1: SID315483192 0.85 inactive; SID315483193 -0.83 inactive; SID315483194 0.53 inactive; SID315483195 0.68 inactive; SID315483196 1.63 active; SID315483197 -0.61 inactive
ALG10B: SID315487812 1.08 inactive; SID315487813 -0.42 inactive; SID315487814 0.89 inactive; SID315487815 0.13 inactive; SID315487816 -0.16 inactive; SID315487817 0.38 inactive
PANK4: SID315485823 0.53 inactive; SID315485824 -0.54 inactive; SID315485825 -0.53 inactive; SID315485826 0.6 inactive; SID315485827 -0.25 inactive; SID315485828 1.52 active
SLC38A3: SID315483540 0.46 inactive; SID315483541 0.78 inactive; SID315483542 1.91 active; SID315483543 -0.78 inactive; SID315483544 -0.25 inactive; SID315483545 -0.43 inactive
HSPH1: SID315483516 2.9 active; SID315483517 -0.31 inactive; SID315483518 0.71 inactive; SID315483519 -1.61 active; SID315483520 -0.38 inactive; SID315483521 -0.66 inactive
GHRH: SID315482364 -0.07 inactive; SID315482365 -0.02 inactive; SID315482366 -0.4 inactive; SID315482367 -0.79 inactive; SID315482368 -1.34 active; SID315482369 0.23 inactive

A stretch taken from the entries so far:
TNF reporter z-score, replicate mean, by target and reagent
MPZL1: SID315483196 1.63 active; SID315483197 -0.61 inactive
ALG10B: SID315487812 1.08 inactive; SID315487813 -0.42 inactive; SID315487814 0.89 inactive
